Drawing on publication PMC10799901, this text covers binding for 3 substances.

Chains of the proteins cited; added tags and fusions are not shown.
UniProt Q9WTL8: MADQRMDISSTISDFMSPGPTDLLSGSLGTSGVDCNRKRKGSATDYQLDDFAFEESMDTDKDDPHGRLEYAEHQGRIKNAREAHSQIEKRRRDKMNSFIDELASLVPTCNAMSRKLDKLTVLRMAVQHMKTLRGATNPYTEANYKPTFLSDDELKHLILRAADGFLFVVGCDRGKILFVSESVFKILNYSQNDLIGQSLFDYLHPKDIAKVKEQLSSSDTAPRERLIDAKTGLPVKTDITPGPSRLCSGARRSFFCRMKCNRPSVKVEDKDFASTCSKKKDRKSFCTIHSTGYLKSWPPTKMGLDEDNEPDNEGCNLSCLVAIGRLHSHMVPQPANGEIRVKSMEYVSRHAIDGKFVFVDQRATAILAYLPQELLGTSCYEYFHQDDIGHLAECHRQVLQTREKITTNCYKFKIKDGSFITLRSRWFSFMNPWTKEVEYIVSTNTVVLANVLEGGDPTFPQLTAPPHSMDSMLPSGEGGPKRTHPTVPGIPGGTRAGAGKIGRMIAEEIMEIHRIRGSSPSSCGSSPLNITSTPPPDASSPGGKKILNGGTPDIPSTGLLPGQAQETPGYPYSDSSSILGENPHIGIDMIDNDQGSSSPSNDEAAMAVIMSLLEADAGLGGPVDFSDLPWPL
UniProt O00327: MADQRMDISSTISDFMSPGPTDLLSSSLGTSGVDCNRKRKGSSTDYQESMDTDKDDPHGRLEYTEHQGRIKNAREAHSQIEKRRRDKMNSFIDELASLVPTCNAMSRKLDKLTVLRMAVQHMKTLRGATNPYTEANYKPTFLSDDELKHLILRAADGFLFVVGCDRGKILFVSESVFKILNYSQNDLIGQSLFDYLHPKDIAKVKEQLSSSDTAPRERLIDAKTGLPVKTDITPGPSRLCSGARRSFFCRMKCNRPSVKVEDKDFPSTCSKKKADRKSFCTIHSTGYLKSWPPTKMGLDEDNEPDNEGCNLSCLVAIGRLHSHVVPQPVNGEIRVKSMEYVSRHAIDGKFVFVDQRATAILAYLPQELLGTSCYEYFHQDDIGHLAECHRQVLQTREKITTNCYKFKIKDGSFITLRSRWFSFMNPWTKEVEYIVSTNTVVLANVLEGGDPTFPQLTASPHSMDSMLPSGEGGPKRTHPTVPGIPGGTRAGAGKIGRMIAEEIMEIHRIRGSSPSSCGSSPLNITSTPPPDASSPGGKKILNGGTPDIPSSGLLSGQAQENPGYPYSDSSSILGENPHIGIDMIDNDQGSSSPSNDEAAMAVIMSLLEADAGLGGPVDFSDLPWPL
UniProt P57780: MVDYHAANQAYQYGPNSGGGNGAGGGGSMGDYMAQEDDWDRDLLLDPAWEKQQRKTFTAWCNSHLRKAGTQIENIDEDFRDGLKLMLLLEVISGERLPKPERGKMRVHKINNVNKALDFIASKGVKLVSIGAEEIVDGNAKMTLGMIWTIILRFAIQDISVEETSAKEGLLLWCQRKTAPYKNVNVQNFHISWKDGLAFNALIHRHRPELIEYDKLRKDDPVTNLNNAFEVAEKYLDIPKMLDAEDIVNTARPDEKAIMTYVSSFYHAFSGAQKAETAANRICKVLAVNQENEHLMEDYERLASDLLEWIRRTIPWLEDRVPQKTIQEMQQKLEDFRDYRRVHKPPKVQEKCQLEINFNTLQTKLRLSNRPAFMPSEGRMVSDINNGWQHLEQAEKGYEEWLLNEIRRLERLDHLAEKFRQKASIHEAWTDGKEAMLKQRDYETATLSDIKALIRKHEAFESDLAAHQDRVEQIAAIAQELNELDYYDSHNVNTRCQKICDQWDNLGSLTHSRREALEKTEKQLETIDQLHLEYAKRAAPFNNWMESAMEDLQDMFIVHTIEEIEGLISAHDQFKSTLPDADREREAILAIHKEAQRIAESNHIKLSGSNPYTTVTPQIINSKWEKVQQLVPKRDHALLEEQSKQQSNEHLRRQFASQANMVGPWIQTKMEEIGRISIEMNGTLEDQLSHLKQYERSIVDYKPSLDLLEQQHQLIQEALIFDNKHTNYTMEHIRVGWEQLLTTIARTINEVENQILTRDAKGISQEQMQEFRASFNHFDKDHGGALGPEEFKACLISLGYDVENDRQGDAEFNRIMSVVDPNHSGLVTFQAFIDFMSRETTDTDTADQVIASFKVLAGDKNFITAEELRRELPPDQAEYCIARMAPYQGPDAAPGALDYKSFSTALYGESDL
UniProt Q61188: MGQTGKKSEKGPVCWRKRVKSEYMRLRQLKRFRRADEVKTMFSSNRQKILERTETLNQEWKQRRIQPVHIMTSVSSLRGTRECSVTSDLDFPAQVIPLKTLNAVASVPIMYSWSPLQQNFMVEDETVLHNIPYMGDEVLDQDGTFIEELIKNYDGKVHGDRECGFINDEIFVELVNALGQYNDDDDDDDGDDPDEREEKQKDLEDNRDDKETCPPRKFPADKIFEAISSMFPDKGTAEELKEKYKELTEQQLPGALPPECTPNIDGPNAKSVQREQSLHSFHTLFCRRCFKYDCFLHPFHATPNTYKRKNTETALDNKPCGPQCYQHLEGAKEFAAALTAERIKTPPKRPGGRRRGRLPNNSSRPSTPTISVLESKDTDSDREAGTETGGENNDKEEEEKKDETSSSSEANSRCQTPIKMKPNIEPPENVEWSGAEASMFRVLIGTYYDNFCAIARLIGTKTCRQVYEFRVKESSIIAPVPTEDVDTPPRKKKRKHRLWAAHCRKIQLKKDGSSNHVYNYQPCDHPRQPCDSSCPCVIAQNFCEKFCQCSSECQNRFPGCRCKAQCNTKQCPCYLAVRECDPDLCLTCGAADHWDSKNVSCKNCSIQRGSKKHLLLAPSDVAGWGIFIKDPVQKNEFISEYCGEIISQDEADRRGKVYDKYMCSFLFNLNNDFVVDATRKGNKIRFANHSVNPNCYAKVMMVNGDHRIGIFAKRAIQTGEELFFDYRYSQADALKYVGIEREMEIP
UniProt P35579: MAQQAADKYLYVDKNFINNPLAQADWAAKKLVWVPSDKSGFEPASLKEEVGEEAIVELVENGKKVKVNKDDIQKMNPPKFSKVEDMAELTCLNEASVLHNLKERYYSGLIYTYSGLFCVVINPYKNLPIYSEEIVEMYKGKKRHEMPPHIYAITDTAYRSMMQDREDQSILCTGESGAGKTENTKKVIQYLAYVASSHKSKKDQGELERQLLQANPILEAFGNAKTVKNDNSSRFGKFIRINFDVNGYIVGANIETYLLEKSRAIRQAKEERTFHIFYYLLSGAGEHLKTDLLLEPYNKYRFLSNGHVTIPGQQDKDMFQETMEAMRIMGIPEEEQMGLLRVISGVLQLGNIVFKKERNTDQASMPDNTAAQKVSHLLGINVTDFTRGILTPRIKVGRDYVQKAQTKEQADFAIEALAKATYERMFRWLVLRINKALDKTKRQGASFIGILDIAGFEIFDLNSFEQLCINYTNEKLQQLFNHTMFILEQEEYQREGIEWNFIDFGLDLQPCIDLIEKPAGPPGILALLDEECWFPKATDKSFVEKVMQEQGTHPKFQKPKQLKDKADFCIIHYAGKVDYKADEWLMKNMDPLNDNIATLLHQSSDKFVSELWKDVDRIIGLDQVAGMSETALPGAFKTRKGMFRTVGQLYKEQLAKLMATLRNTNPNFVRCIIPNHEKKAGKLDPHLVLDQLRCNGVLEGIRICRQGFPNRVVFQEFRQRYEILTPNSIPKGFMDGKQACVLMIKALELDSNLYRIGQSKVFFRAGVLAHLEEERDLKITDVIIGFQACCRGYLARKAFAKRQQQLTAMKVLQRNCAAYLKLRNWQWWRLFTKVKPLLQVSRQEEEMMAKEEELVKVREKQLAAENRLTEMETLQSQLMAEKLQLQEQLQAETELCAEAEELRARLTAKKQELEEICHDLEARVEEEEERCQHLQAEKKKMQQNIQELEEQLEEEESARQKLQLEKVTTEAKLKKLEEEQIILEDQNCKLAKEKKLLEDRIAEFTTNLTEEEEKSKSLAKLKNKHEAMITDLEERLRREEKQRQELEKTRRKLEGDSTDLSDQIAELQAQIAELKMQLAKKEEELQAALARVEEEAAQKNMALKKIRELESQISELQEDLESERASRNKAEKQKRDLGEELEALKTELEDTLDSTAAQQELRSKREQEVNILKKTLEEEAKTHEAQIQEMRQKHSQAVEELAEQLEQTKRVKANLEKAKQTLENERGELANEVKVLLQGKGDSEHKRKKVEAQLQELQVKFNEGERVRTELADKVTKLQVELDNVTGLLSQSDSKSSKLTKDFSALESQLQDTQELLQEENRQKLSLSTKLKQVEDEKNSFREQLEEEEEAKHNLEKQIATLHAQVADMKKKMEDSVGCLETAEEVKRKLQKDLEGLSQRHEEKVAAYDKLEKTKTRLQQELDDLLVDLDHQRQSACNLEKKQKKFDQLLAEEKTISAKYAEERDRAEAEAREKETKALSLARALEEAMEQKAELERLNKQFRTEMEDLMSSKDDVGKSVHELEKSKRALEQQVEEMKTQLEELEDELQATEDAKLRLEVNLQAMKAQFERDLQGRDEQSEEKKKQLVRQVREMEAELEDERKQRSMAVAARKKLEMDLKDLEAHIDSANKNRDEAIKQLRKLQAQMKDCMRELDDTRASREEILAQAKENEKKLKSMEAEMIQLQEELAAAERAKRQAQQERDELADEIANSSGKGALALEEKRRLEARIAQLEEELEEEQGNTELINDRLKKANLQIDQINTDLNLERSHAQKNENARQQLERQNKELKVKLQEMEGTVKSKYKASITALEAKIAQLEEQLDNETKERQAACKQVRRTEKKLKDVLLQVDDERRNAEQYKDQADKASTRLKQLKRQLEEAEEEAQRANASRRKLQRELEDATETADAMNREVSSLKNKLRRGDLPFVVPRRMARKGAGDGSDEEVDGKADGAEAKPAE

The target in experiment [1] is WT-Bmal1, ectopically expressed wild-type Bmal1 (UniProt Q9WTL8). Briefly: co-IP; cells cross-linked with 1% formaldehyde for 10 min; nuclear extract in high salt nuclear extraction buffer (10 mM HEPES pH 8.0, 0.2 M NaCl); BMAL1 antibody or normal rabbit IgG, protein A beads; immunoblot. (In general: In western blotting, separated proteins are transferred to a membrane and probed.)

The target of experiment [2] is BMAL1, endogenous in human melanoma cell lines (human (endogenous in human melanoma cell lines)) (UniProt O00327). Briefly: proximity ligation; Duolink In Situ Red kit on fixed, permeabilised cells; anti-BMAL1 + anti-MYH9; YUMM2.1 EV, WT-Bmal1, dHLH-Bmal1, reconstituted YUMM2.1KO cells and several human melanoma cell lines; signal mostly in the nucleus.

These are yes or no findings as the source states them, for the method shown. In cells and extracts the contact can be indirect. Some entries that bind do so weakly or less than the wild type.

As for “Actinin 4 (Actn4), endogenous (from UniProt P57780 1-912)”, the binding entry in experiment [1] was “binds”. Consider “Ezh2, endogenous (from UniProt Q61188 1-746)”, for which the binding entry in experiment [1] is “no binding”.

As to “MYH9, endogenous in human melanoma cell lines (from UniProt P35579 1-1960)”, in experiment [2], the binding result is reported as “binds”.
